PubChem BioAssay AID1259308 | NCATS, 2017

Purpose: 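Candidate targets for better recombinant protein yield in mammalian cells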 (primary screen)
System: human HEK293 embryonic kidney cells stably expressing firefly luciferase (HEK-CMV-Luc2-Hygro)
Reagent: single siRNA against human genes, 0.8 pmol siRNA per well
Duration: 72 h
Detection: 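Reporter luminescence and viable-cell signal on separate replicate plates, given as percent of non-targeting control and median/MAD z-scores, plus per-cell luciferase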
Scale: total luciferase, z-score and total luciferase, % of control: higher = more reporter protein produced; luciferase per cell, z-score: higher = more reporter output per viable cell; viable cells, % of control: higher = more viable cells
Call rule: 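Active when the median/MAD z-score for overall luciferase is greater than 3; a gene was taken forward for validation with new siRNAs if at least two of its three siRNAs passed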
Meaning of the calls: active = raised luciferase; inactive = no rise
Shown is an unselected part of about 59,000 deposited reagents. Over the whole deposit, about 1,510 (2.6%) were called active. 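Calls use total luciferase alone and ignore viability, so some active siRNAs may act by altering cell number.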 Reagents against one gene are numbered here.

no.	target gene	reagent	total luciferase, z-score	total luciferase, % of control	luciferase per cell, z-score	viable cells, % of control	call
1	SYT17 (synaptotagmin 17)	1	2.2	126	1.62	91.7	inactive
2	SYT17 (synaptotagmin 17)	2	1.43	110	0.771	101	inactive
3	SYT17 (synaptotagmin 17)	3	-0.192	78.1	-0.855	109	inactive
4	TTC6 (tetratricopeptide repeat domain 6)	1	0.566	93.1	0.327	95.5	inactive
5	TTC6 (tetratricopeptide repeat domain 6)	2	0.55	92.8	1.47	70.5	inactive
6	TTC6 (tetratricopeptide repeat domain 6)	3	-0.766	66.7	-0.839	92.9	inactive
7	TTC6 (tetratricopeptide repeat domain 6)	4	0.774	97.3	0.577	93.4	inactive
8	TTC6 (tetratricopeptide repeat domain 6)	5	0.0532	82.9	-0.193	97.5	inactive
9	TTC6 (tetratricopeptide repeat domain 6)	6	-0.484	72.3	-0.285	87	inactive
10	MAGI3	1	-0.291	76.1	-0.593	99.4	inactive
11	MAGI3	2	-1.37	54.6	-1.17	82.9	inactive
12	MAGI3	3	-1.15	59	-1.23	91.1	inactive
13	UHRF1 (ubiquitin like with PHD and ring finger domains 1)	1	0.707	95.9	1.36	75	inactive
14	UHRF1 (ubiquitin like with PHD and ring finger domains 1)	2	0.594	93.7	0.73	86.4	inactive
15	UHRF1 (ubiquitin like with PHD and ring finger domains 1)	3	0.365	89.1	1.52	66.8	inactive
16	OR51E1 (olfactory receptor family 51 subfamily E member 1)	1	0.398	89.8	0.783	81.7	inactive
17	OR51E1 (olfactory receptor family 51 subfamily E member 1)	2	-0.256	76.8	0.0335	85.1	inactive
18	OR51E1 (olfactory receptor family 51 subfamily E member 1)	3	1.51	112	1.43	85.9	inactive
19	HIBCH (3-hydroxyisobutyryl-CoA hydrolase)	1	0.287	87.6	0.383	88.5	inactive
20	HIBCH (3-hydroxyisobutyryl-CoA hydrolase)	2	-1.39	54.2	-1.42	88.2	inactive
21	HIBCH (3-hydroxyisobutyryl-CoA hydrolase)	3	-0.86	64.8	-0.822	89.9	inactive
22	VPS35L (VPS35 endosomal protein sorting factor like)	1	-0.812	65.7	-0.899	93.1	inactive
23	VPS35L (VPS35 endosomal protein sorting factor like)	2	2.08	123	1.22	99.9	inactive
24	VPS35L (VPS35 endosomal protein sorting factor like)	3	-1.81	45.8	-0.736	62.1	inactive

2 entries from above, limited to “total luciferase, % of control”:
HIBCH (3-hydroxyisobutyryl-CoA hydrolase) #3	64.8
VPS35L (VPS35 endosomal protein sorting factor like) #1	65.7
